Laboratory results: PubChem BioAssay AID1259308 (NCATS, 2017)
In all, the deposit lists about 59,000 reagents; shown is an unselected part. In the full data, about 1,510 (2.6%) are marked active. 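Calls use total luciferase alone and ignore viability, so some active siRNAs may act by altering cell number.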 Unmarked entries are inactive. The numbers tell different reagents against one gene apart. Not all columns of the deposit are shown.

- Purpose: 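Knock-downs that increase output of a recombinant reporter protein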 (primary screen)
- Cells: human HEK293 embryonic kidney cells stably expressing firefly luciferase (HEK-CMV-Luc2-Hygro)
- Knock-down reagent: single siRNA against human genes, 0.8 pmol siRNA per well
- Time to read-out: 72 h
- Detection: 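Reporter luminescence and viable-cell signal on separate replicate plates, given as percent of non-targeting control and median/MAD z-scores, plus per-cell luciferase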
- Scale: total luciferase, z-score and total luciferase, % of control: higher = more reporter protein produced
- Hit rule: 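An siRNA counts as active if its total luciferase robust z-score exceeds 3; genes with two or more such siRNAs out of three were retested with fresh siRNAs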
- Calls: active = raised luciferase; inactive = no rise

TBC1D22A (TBC1 domain family member 22A) #1 → total luciferase, z-score = 0.313; total luciferase, % of control = 88.1
TBC1D22A (TBC1 domain family member 22A) #2 → total luciferase, z-score = -0.304; total luciferase, % of control = 75.8
TBC1D22A (TBC1 domain family member 22A) #3 → total luciferase, z-score = 1.48; total luciferase, % of control = 111
IL6 (interleukin 6) #1 → total luciferase, z-score = -0.119; total luciferase, % of control = 79.5
IL6 (interleukin 6) #2 → total luciferase, z-score = -1.91; total luciferase, % of control = 43.8
IL6 (interleukin 6) #3 → total luciferase, z-score = 0.889; total luciferase, % of control = 99.6
TMPRSS12 (transmembrane serine protease 12) #1 → total luciferase, z-score = 0.177; total luciferase, % of control = 85.4
TMPRSS12 (transmembrane serine protease 12) #2 → total luciferase, z-score = 0.0608; total luciferase, % of control = 83.1
TMPRSS12 (transmembrane serine protease 12) #3 → total luciferase, z-score = 0.451; total luciferase, % of control = 90.9
MORC1 (MORC family CW-type zinc finger 1) #1 → total luciferase, z-score = -0.198; total luciferase, % of control = 77.9
MORC1 (MORC family CW-type zinc finger 1) #2 → total luciferase, z-score = -0.701; total luciferase, % of control = 67.9
MORC1 (MORC family CW-type zinc finger 1) #3 → total luciferase, z-score = -1.12; total luciferase, % of control = 59.6
PLAAT4 (phospholipase A and acyltransferase 4) #1 → total luciferase, z-score = 0.532; total luciferase, % of control = 92.5
PLAAT4 (phospholipase A and acyltransferase 4) #2 → total luciferase, z-score = 0.13; total luciferase, % of control = 84.5
PLAAT4 (phospholipase A and acyltransferase 4) #3 → total luciferase, z-score = -1.83; total luciferase, % of control = 45.5
RGS14 (regulator of G protein signaling 14) #1 → total luciferase, z-score = -0.421; total luciferase, % of control = 73.5
RGS14 (regulator of G protein signaling 14) #2 → total luciferase, z-score = -1.12; total luciferase, % of control = 59.6
RGS14 (regulator of G protein signaling 14) #3 → total luciferase, z-score = -0.756; total luciferase, % of control = 66.8
RPF2 (ribosome production factor 2 homolog) #1 → total luciferase, z-score = 0.223; total luciferase, % of control = 86.3
RPF2 (ribosome production factor 2 homolog) #2 → total luciferase, z-score = -0.602; total luciferase, % of control = 69.9
RPF2 (ribosome production factor 2 homolog) #3 → total luciferase, z-score = -0.0328; total luciferase, % of control = 81.2
ARID5B (AT-rich interaction domain 5B) #1 → total luciferase, z-score = 0.473; total luciferase, % of control = 91.3
ARID5B (AT-rich interaction domain 5B) #2 → total luciferase, z-score = 0.811; total luciferase, % of control = 98
ARID5B (AT-rich interaction domain 5B) #3 → total luciferase, z-score = 1.94; total luciferase, % of control = 121
ATF7 (activating transcription factor 7) #1 → total luciferase, z-score = 0.251; total luciferase, % of control = 86.9
ATF7 (activating transcription factor 7) #2 → total luciferase, z-score = 2.14; total luciferase, % of control = 124
ATF7 (activating transcription factor 7) #3 → total luciferase, z-score = 0.656; total luciferase, % of control = 94.9
ARL5B (ARF like GTPase 5B) #1 → total luciferase, z-score = -0.876; total luciferase, % of control = 64.5
ARL5B (ARF like GTPase 5B) #2 → total luciferase, z-score = 3.09 (active); total luciferase, % of control = 143
ARL5B (ARF like GTPase 5B) #3 → total luciferase, z-score = -0.365; total luciferase, % of control = 74.6
P4HA3 (prolyl 4-hydroxylase subunit alpha 3) #1 → total luciferase, z-score = -0.307; total luciferase, % of control = 75.8
P4HA3 (prolyl 4-hydroxylase subunit alpha 3) #2 → total luciferase, z-score = -2.03; total luciferase, % of control = 41.4
P4HA3 (prolyl 4-hydroxylase subunit alpha 3) #3 → total luciferase, z-score = -1.11; total luciferase, % of control = 59.8

2 of these entries, reformatted.
{"Target gene":"MORC1 (MORC family CW-type zinc finger 1)","siRNA no.":2,"total luciferase, z-score":-0.701,"total luciferase, % of control":67.9}
{"Target gene":"MORC1 (MORC family CW-type zinc finger 1)","siRNA no.":3,"total luciferase, z-score":-1.12,"total luciferase, % of control":59.6}
